The values that follow come from PubChem BioAssay AID1487 (National Center for Advancing Translational Sciences (NCATS), 2009).

The list shows a part of the results. The main result of the screen is listed elsewhere. These columns were measured beside it and carry no call. Compounds called inactive in the main read-out are mostly missing here. Potencies come from curve fits of mixed quality, noted in brackets.

The experiment in a line: qHTS Assay for Modulators of Lamin A Splicing. The note with it: HeLa LMNA splicing GFP/RFP minigene ratio, 48 h. In outline:
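S3 HeLa cells stably expressing lamin A-EGFP splicing minigene plus DsRed2, 600 cells/well, 48 h compound exposure at 37C. Laser-scanning cytometry; analysed as GFP (500-530 nm)/RFP (575-640 nm) total intensity ratio; 0.5% DMSO vehicle.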
In general terms: qHTS replaces the single test concentration by a dilution series.

Where [1] appears, read: measured here: GFP splicing reporter channel.
The mark [2] stands for this setting: measured here: RFP viability control channel.

Broadly, the AC50 is the concentration giving half of the maximal activity seen. Turning to `Cc1cc(Nc2ccc(C(C)C)cc2)nc(-n2nc(C)cc2C)n1`, the AC50 reads like this: under setting [1], 2.51 µM [rising, partial curve, poor fit]; under setting [2], 7.08 µM [rising, full curve, poor fit]. As for `C=CCN(c1ccc(C(=O)Nc2cc(C)cc(C)c2)cc1)S(C)(=O)=O`, the AC50 was 14.1 µM [rising, single point] under setting [1] and 35.5 µM [rising, single point] under setting [2]. As for `CCN(CC)c1ccc(/C=N/NC(=O)Cc2cccs2)c(O)c1`, the AC50 reads like this: under setting [1], 31.6 µM [rising, single point]; under setting [2], 35.5 µM [rising, single point]. Regarding `COc1ccc(Cl)cc1Nc1nc(-c2sc(NC(=O)C(C)(C)C)nc2C)cs1`, the AC50 by setting is: under setting [1], 4.47 µM [rising, partial curve, poor fit]; under setting [2], 3.55 µM [rising, full curve]. In the case of `OC[C@H]1O[C@@H](n2cnc3c(N[C@H]4CC5CCC4C5)ncnc32)[C@H](O)[C@@H]1O` (stereo partly drawn), the AC50 under setting [2] was 6.31 µM [falling, single point].

On to `CN1CCN(c2cnn(-c3ccccc3)c(=O)c2Br)CC1`, for which the AC50 under setting [2] is 0.0178 µM [falling, full curve, poor fit]. In the case of `COc1ccc(S(=O)(=O)N2CCN(C(=O)COc3ccc4c(C)cc(=O)oc4c3)CC2)cc1`, the AC50 under setting [2] was 3.55 µM [rising, full curve, poor fit].

As for `CC(C)(C)c1ccc(S(=O)(=O)N2CCCCC2)cc1`, the AC50 runs as follows: under setting [1], 14.1 µM [rising, single point]; under setting [2], 12.6 µM [rising, partial curve].

With `CCOc1ccc(S(=O)(=O)n2cnc3cc(C)c(C)cc32)cc1`, the AC50 under setting [2] is 8.91 µM [rising, partial curve].

Consider `O=C(Nn1cc(C(=O)Nc2ccccc2F)c2ccccc2c1=O)c1cnccn1`, for which the AC50 under setting [2] was 8.91 µM [rising, partial curve, poor fit]. Turning to `Cc1cccc(Cn2c(SCc3ccc(C(=O)NCCc4ccccc4)cc3)nc3cccnc32)c1`, the AC50 under setting [1] was 10 µM [falling, partial curve]. For the compound `CCCn1c(NC(=O)c2ccc(Cl)c(S(=O)(=O)N3CCCC3)c2)nc2ccccc21`, the AC50 reads like this: under setting [1], 14.1 µM [rising, partial curve]; under setting [2], 11.2 µM [rising, partial curve]. For `CC(C)(CNC(=O)c1sc2cc(F)ccc2c1Cl)N1CCOCC1`, the AC50 under setting [1] was 35.5 µM [rising, single point] and the AC50 under setting [2] was 35.5 µM [rising, single point].

Take `CC(=O)Nc1cccc(NC(=O)C2(c3cccs3)CCOCC2)c1`: the half-maximal activity concentration (AC50) is 0.02 µM [falling, full curve, poor fit] under setting [1] and 0.0141 µM [falling, full curve, poor fit] under setting [2]. With `CC(C)Cc1ccc(C(C)C(=O)Nc2nccs2)cc1` (stereo not drawn), the AC50 is 17.8 µM [rising, single point] under setting [1] and 25.1 µM [rising, single point] under setting [2]. In the case of `O=C(CC1CCCCC1)NCCOc1ccccc1`, the AC50 under setting [1] was 10 µM [rising, partial curve]. For the compound `Cc1ccc(OCc2nnc(SCc3ccc(C#N)cc3)n2-c2ccc(C)cc2)cc1`, under setting [2], the half-maximal activity concentration (AC50) was 5.01 µM [rising, partial curve, poor fit].

As to `CCOC(=O)CC(=O)CSc1nc2ccccc2c(=O)n1CCc1ccccc1`, the AC50 is 35.5 µM [rising, partial curve, poor fit] under setting [1] and 25.1 µM [rising, partial curve] under setting [2]. On to `O=C(Nc1ccccc1)Nc1c(F)cccc1F`, for which the AC50 under setting [1] is 0.251 µM [falling, full curve, poor fit]. Regarding `CCOC(=O)C1=C(C)NC(=S)NC1/C=C/c1ccccc1` (stereo not drawn), the AC50 under setting [2] is 14.1 µM [rising, single point]. Turning to `CCCc1ccc(OCc2ccc(C(=O)N3CCN(c4ccccn4)CC3)o2)c(OC)c1`, the AC50 under setting [1] is 22.4 µM [rising, single point] and the AC50 under setting [2] is 15.8 µM [rising, single point]. Consider `Cc1ccsc1/C=N/N1CCN(c2ccccc2)CC1`, for which, under setting [2], the AC50 was 10 µM [rising, single point]. The same measure, in the same setting: in the case of `O=C(c1cc(Cl)cc(Cl)c1)N1CCC(=O)N(C(COCc2ccccc2)Cc2ccccc2)CC1` (stereo not drawn) it was 35.5 µM [rising, single point]; in that of `Cc1ccc(Cn2cnc3ccccc32)cc1`, 15.8 µM [rising, single point]; in that of `Cn1cc(S(=O)(=O)N2CCCC2)cc1C(=O)Nc1ccc(C(F)(F)F)cc1`, 0.00794 µM [falling, full curve, poor fit]. For `CC(=O)Nc1cccc(C(=O)OCC(=O)NC(C)c2ccc(F)cc2)c1` (stereo not drawn), under setting [2], the AC50 is 0.0447 µM [falling, full curve, poor fit].

On to `N#Cc1ccccc1/C=N/Nc1nc(-c2ccccc2)c2cc(Cl)ccc2n1`, for which the AC50 is 20 µM [falling, single point] under setting [1] and 20 µM [falling, single point] under setting [2]. Consider `CCCN(CCC)C(C(=O)Nc1cccc(OC)c1)c1ccccc1` (stereo not drawn), for which the AC50 by setting is: under setting [1], 35.5 µM [rising, single point]; under setting [2], 20 µM [rising, single point].

For `Nc1nc(Cl)cc(N2CCC(c3cc(-c4ccc(Cl)cc4Cl)n[nH]3)CC2)n1`, the AC50 by setting is: under setting [1], 22.4 µM [falling, single point]; under setting [2], 17.8 µM [falling, single point]. Turning to `CCN(CC)S(=O)(=O)c1cccc(C(=O)Nc2ccc(Cl)cn2)c1`, the AC50 under setting [2] is 15.8 µM [rising, single point]. In the case of `O=C(COc1ccccc1)NNc1c2ccccc2nc2ccccc12`, the AC50 reads like this: under setting [1], 17.8 µM [falling, single point]; under setting [2], 5.01 µM [falling, single point]. On to `O=C(Cn1ncc(Cl)c(Cl)c1=O)NCC1CCCCC1`, for which the AC50 under setting [2] is 14.1 µM [falling, partial curve]. For the compound `COc1ccc(N=Nc2nc3cc(Br)c(Br)cc3n2C)c(OC)c1`, the AC50 under setting [1] was 12.6 µM [falling, partial curve] and the AC50 under setting [2] is 12.6 µM [falling, partial curve].

As to `NC1=NC(=Nc2ccc(Br)cc2)c2ccccc21`, the AC50 by setting is: under setting [1], 8.91 µM [rising, partial curve, poor fit]; under setting [2], 31.6 µM [rising, single point]. Regarding `CC(Cl)C(=O)NC(=O)NC12CC3CC(CC(C3)C1)C2` (stereo not drawn), the AC50 under setting [2] is 8.91 µM [rising, partial curve, poor fit]. The same measure, in the same setting: in the case of `CC(C)Oc1ccc(C(=O)Nc2ccc(N(C)C)cc2)cc1` it was 0.0141 µM [rising, full curve, poor fit]. `Cc1ccc(CN2CC(C(=O)Nc3cccc(S(=O)(=O)N4CCCCC4)c3)CC2=O)cc1` (stereo not drawn): the concentration at half-maximal activity (AC50) reads like this: under setting [1], 0.01 µM [rising, full curve, poor fit]; under setting [2], 17.8 µM [rising, partial curve].

Consider `CC(C)CN(CC(C)C)C(=O)C12CCC(C)(C(=O)C1)C2(C)C` (stereo not drawn), for which the AC50 under setting [1] is 0.0891 µM [falling, full curve, poor fit]. With `COCc1nnc(NC(=O)c2ccc(S(=O)(=O)N(C)c3ccccc3)cc2)o1`, the AC50 under setting [2] was 22.4 µM [rising, single point]. In the case of `Cc1ccc(C)c(N=C2CCCN2Cc2ccccc2)c1C#N`, the AC50 under setting [2] is 35.5 µM [rising, single point]. For `CCc1nnc(NC(=O)CSc2nccn2Cc2ccc(F)cc2)s1`, under setting [2], the AC50 was 3.16 µM [falling, partial curve]. As to `CCOc1ccccc1NC(=O)NCCC1=CCCCC1`, under setting [1], the AC50 is 0.00316 µM [falling, full curve, poor fit]. With `CCCCNC(=O)/C(C#N)=C/c1ccc(C(=O)OC)cc1`, the AC50 reads like this: under setting [1], 5.01 µM [falling, partial curve, poor fit]; under setting [2], 35.5 µM [falling, single point]. `Fc1ccc(COc2ccccc2CNCc2ccncc2)cc1`: the AC50 under setting [2] is 14.1 µM [rising, single point]. On to `Cc1cc(C)cc(NS(=O)(=O)c2ccc(NC(=O)C3CCCCC3C(=O)O)cc2)c1` (stereo not drawn), for which the AC50 under setting [2] is 10 µM [rising, partial curve, poor fit]. For `CC(C)(C)NC(=O)Cn1c(=O)oc2cc(S(=O)(=O)N3CCc4ccccc43)ccc21`, the AC50 under setting [2] is 15.8 µM [rising, single point]. In the case of `Cc1cccc(C(=O)Nc2ccccc2N2CCN(c3ccc(F)cc3)CC2)c1`, the AC50 under setting [1] is 35.5 µM [rising, single point] and the AC50 under setting [2] was 31.6 µM [rising, single point].

With `COc1ccc(OC)c(C2C(C(=O)c3cc4ccccc4o3)=C(O)C(=O)N2c2cc(C)on2)c1` (stereo not drawn), under setting [2], the AC50 was 7.08 µM [rising, partial curve]. For the compound `COC(=O)CSc1nc2ccc(C)cc2cc1C#N`, the AC50 under setting [2] was 11.2 µM [falling, partial curve]. In the case of `Clc1ccc(C2=CSC3=NCCN23)cc1Cl`, the AC50 under setting [1] is 14.1 µM [rising, partial curve, poor fit] and the AC50 under setting [2] is 11.2 µM [rising, partial curve, poor fit].

Turning to `Cc1ccc2c(c1)-c1c(c(C(=O)NCCc3ccccc3)nn1C)CS2`, the AC50 reads like this: under setting [1], 35.5 µM [falling, single point]; under setting [2], 0.158 µM [falling, full curve, poor fit]. Take `COc1ccc(CCC(=O)NCc2nc3cccnc3n2Cc2ccc(C)cc2)cc1`: the AC50 under setting [2] is 0.02 µM [falling, full curve, poor fit]. On to `CC(=O)Nc1nc(C)c(-c2csc(Nc3ccccn3)n2)s1`, for which the AC50 under setting [1] is 5.01 µM [falling, full curve] and the AC50 under setting [2] is 0.158 µM [falling, full curve, poor fit]. `c1cc(CN2CCCCC2)cc(OCCCNc2nc3ccccc3s2)c1`: the AC50 under setting [1] was 35.5 µM [falling, single point].

Take `COc1cc2cc(C)nc(Cc3cccc4ccccc34)c2cc1OC`: the AC50 under setting [2] is 10 µM [rising, partial curve].
